{"sequences": {"note": "By UniProt entry, the sequences of proteins in these tests, tags left out. Residues count along the entry.", "UniProt P27918, residues 28-469": "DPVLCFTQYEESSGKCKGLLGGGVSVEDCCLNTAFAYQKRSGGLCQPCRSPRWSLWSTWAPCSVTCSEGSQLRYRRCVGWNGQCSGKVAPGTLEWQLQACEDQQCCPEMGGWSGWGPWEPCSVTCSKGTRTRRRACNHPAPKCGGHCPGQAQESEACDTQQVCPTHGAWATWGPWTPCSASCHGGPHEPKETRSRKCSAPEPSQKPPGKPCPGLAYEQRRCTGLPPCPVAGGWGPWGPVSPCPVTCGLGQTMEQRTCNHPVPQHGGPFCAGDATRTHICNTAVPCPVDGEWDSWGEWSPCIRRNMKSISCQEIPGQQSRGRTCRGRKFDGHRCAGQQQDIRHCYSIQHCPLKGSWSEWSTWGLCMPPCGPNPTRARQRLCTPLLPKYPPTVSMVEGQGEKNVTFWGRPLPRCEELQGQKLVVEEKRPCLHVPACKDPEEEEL"}, "source": "patent US20190352381A1", "about": "(Alexion, published 2019)", "binders": {"B1": {"name": "TPP-2951 (Humanized anti-Albumin LVP058 (G4S)3 Linker (7-backmutations)) (bispecific antibody)", "chain": "EVQLVESGGGLVKPGGSLRLSCAASGRPVSNYAAAWFRQAPGKEREFVSAINWQKTATYADSVKGRFTISRDNAKNSLYLQMNSLRAEDTAVYYCAAVFRVVAPKTQYDYDYWGQGTLVTVSSGGGGSGGGGSGGGGSEVQLLESGGGLVQPGGSLRLSCAASGRISSIIHMAWFRQAPGKERELVSEISRVGTTVYADSVKGRFTISRDNSKNTLYLQMNSLKPEDTAVYYCNALQYEKHGGADYWGQGTLVTVSS", "notes": "Single chain: anti-albumin VHH, (G4S)3 linker, humanized LVP058 with 7 back mutations"}, "B2": {"name": "TPP-3261 (Humanized anti-Albumin LVP058 (G4S)3 Linker (3-backmutations)) (bispecific antibody)", "chain": "B1 chain with L143V, F175V, E182Q, K224R, P225A", "notes": "Single chain: anti-albumin VHH, (G4S)3 linker, humanized LVP058 with 3 back mutations"}, "B3": {"name": "AB008 (VHH)", "VHH": "QVQLVESGGGLRQTGESLRLSCTASGRIFEVNMMAWYRQAPGKQRELVAEISRVGTTTYADSVKGRFTISRDSAKNTVTLQMNSLKSEDTAVYYCNALQYDRYGGAEYWGQGTQVTVSG", "notes": "Llama VHH, cloned and expressed with a 6x histidine tag; also called anti-properdin VHH AB008"}, "B4": {"name": "AB005 (VHH)", "VHH": "B3 VHH with L4V, E16G, T58V, G119S"}, "B5": {"name": "AB006 (VHH)", "VHH": "B3 VHH with V5A, R12V, T14A, E16D, R19K, Q44D, D101S"}, "B6": {"name": "AB007 (VHH)", "VHH": "QVQLVESGGGLVQAGGSLRLSCAASGRISSIIHMAWYRQAPGKQRELVAEISRVGTTVYADSVKGRFTISRDDAKNTVTLQMNSLKPEDTAVYYCNALQYEKHGGADYWGQGTQVTVSG", "notes": "Llama VHH, cloned and expressed with a 6x histidine tag; also called anti-properdin VHH AB007"}}, "key": {"[1]": {"target": "cynomolgus properdin (cynomolgus)", "assay": "sensorgram (Resp. Diff. in RU against time) with fitted curves, panel title 'Cyno Properdin_TPP2951 - 21Nov17'; properdin capture method"}, "[2]": {"target": "cynomolgus properdin (cynomolgus)", "assay": "sensorgram (Resp. Diff. in RU against time) with fitted curves, panel title 'Cyno Properdin_TPP3261 - 20Nov17'; properdin capture method"}, "[3]": {"target": "T1, human properdin (human, UniProt P27918 28-469)", "assay": "BLI (Octet), legend of FIG. 1"}, "[4]": {"target": "T1, human properdin", "assay": "BLI (Octet), biotinylated human properdin on streptavidin biosensors, VHH at 10 µg/mL"}}, "note": "Residue numbers refer to the chain shown, from its start. In names and notes the source's numbering stands. No constants are given. Whether binding was seen depends on the method and setting. Some entries that bind do so weakly or less than the wild type.", "data": [{"binder": "B1", "values": [{"measurement": "binding", "setting": "[1]", "value": "binds"}]}, {"binder": "B2", "values": [{"measurement": "binding", "setting": "[2]", "value": "binds"}]}, {"binder": "B3", "values": [{"measurement": "binding", "setting": "[3]", "value": "binds"}, {"measurement": "binding", "setting": "[4]", "value": "binds"}]}, {"binder": "B4", "values": [{"measurement": "binding", "setting": "[3]", "value": "binds"}, {"measurement": "binding", "setting": "[4]", "value": "binds"}]}, {"binder": "B5", "values": [{"measurement": "binding", "setting": "[3]", "value": "binds"}, {"measurement": "binding", "setting": "[4]", "value": "binds"}]}, {"binder": "B6", "values": [{"measurement": "binding", "setting": "[3]", "value": "binds"}, {"measurement": "binding", "setting": "[4]", "value": "binds"}]}]}
